Assay results reported in PubChem BioAssay AID2685 (National Center for Advancing Translational Sciences (NCATS), 2010).
The other results are listed elsewhere or left out. Further columns of the screen follow, without active or inactive calls. Compounds called inactive in the main read-out are mostly missing here. Potencies come from curve fits of mixed quality, noted in brackets.

Experiment: qHTS Assay for Lipid Storage Modulators in Drosophila S3 Cells;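 as to cell number change: cells counted by Cell Tracker Red CMTPX staining in the red channel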
Details: BODIPY lipid droplet fluorescence, 18-24 h; for cell number change: measured here: cell count max response, cells fed with added oleic acid
Procedure, shortened: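 Drosophila S3 cells got compounds at several concentrations plus oleic acid (400 uM solution). Laser-scanning cytometry with 488 nm excitation read lipid droplets at 500-530 nm and cells at 575-640 nm. Percent activity was relative to 20 uM Triacsin C.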

[1] = measured here: lipid fluorescence (Fed channel) AC50, cells fed with added oleic acid
[2] = measured here: cell number channel AC50, cells fed with added oleic acid

Structure (SMILES)	cell number change	AC50 [1]	AC50 [2]
COc1ccc(N(C(=O)CNC(=O)c2ccco2)C(C(=O)NCC2CCCO2)c2ccc(OC)c(OC)c2)cc1 (stereo not given)	-1.9%	6.51 µM [rising, single point]	
COc1cc2c(cc1OC)CN(CC(=O)Nc1ccccc1SC)CC2		2.91 µM [rising, single point]	
COc1nc(-c2ccccc2)cc(-c2ccccc2)n1	5.03%	1.46 µM [rising, partial curve, poor fit]	
COc1ccccc1C(=O)O/N=C1/CCCc2c1ccc(OC)c2[N+](=O)[O-]	55.9%	0.651 µM [falling, single point]	3.26 µM [rising, full curve]
Cn1c(C2CCCCC2)nc2cc(N)ccc21		0.13 µM [rising, full curve, poor fit]	
COc1ccc(-c2noc(CCC(N)=O)n2)cc1OC	28%	6.51 µM [falling, single point]	
COC(=O)C1CCN(C(=O)c2ccc(NC(C)=O)cc2)CC1	2.86%	29.1 µM [falling, single point]	
COc1ccc(CCNC(=O)CSc2nnc(Cn3c(=O)sc4ccccc43)n2C)cc1OC	-19.4%	18.4 µM [falling, single point]	
CCOc1ccc(C(Nc2ccc(C)cc2)P2(=O)OCCCO2)cc1 (stereo not given)	-37.9%		
CCOC(=O)Cc1csc(NC(=O)c2ccc3ncsc3c2)n1	-14.1%	0.058 µM [falling, full curve, poor fit]	
COc1ccccc1C(=O)Nc1nc(-c2ccc(S(=O)(=O)N3CCOCC3)cc2)cs1	-70.5%	6.51 µM [rising, single point]	5.17 µM [falling, full curve]
CCC(=O)Nc1nonc1-c1nc2ccccc2n1CC(C)C	4.67%	1.64 µM [rising, full curve]	
O=C(O)CCCCCNS(=O)(=O)c1cccc2nsnc12	-30.4%	29.1 µM [falling, single point]	2.31 µM [falling, full curve, poor fit]
CCC(=O)NCc1cc(-c2nn(C)c(=O)c3ccccc23)ccc1OC	22.6%	16.4 µM [rising, partial curve, poor fit]	
COc1ccc(NC(=O)N2CCOCC2)cc1	21.1%	29.1 µM [rising, single point]	5.17 µM [rising, partial curve]
Cn1nnnc1SCc1ccc(C(=O)Nc2nccs2)cc1	-30.8%		25.9 µM [falling, partial curve, poor fit]
Clc1ccccc1Cn1nnc2c(N3CCCC3)ncnc21	21.9%	3.66 µM [rising, full curve]	3.66 µM [rising, single point]
O=C(c1ccc(F)cc1)c1cn(Cc2ccc(F)cc2)c2cc3c(cc2c1=O)OCCO3	33.5%		9.2 µM [rising, partial curve]
CCCOc1cccc(NC(=O)c2cc(C)oc2C)c1	-22.3%		

Structure (SMILES)	cell number change	AC50 [1]	AC50 [2]
Cc1ccc(OCCCCn2ccnc2C)c(C)c1	-50.7%	20.6 µM [falling, single point]	
COC(=O)c1ccccc1NC(=S)NC(=O)COc1ccccc1Cl	-6.66%	6.51 µM [falling, single point]	3.66 µM [falling, single point]
COC(=O)c1scc(C)c1N1C(=O)c2ccccc2C1=O	22.6%	32.6 µM [rising, single point]	
Cc1noc(C)c1CC(=O)Nc1ccc2c(c1)OCO2	30.1%	0.082 µM [rising, full curve, poor fit]	29.1 µM [rising, single point]
COc1cccc(NC(=O)Cn2nnc(C(=O)Nc3cc(Cl)ccc3OC)c2N)c1	46.6%		0.517 µM [rising, partial curve, poor fit]
CCc1nc2sc(C)c(C)c2c(=O)n1CCO		1.64 µM [falling, partial curve]	
CCOC(=O)C1=C(C)N(C)C(C)=C(C(=O)OCC)C1c1ccsc1	-24%	0.92 µM [rising, full curve]	0.731 µM [rising, single point]
Cn1cc(CNC(=O)c2sc3cccc(Cl)c3c2Cl)cn1	-45.5%	16.4 µM [falling, partial curve]	16.4 µM [falling, partial curve]
CCCCn1c(N)c(N(Cc2ccccc2OC)C(=O)COc2ccc(F)cc2Cl)c(=O)[nH]c1=O	16.8%	29.1 µM [falling, single point]	
CCN(CC)CCn1c2c(c(SCC(=O)Nc3nc4ccccc4s3)nc1=O)CCC2		0.00461 µM [falling, full curve, poor fit]	
O=C(c1ccccc1Br)N1CCN(Cc2ccc3c(c2)OCO3)CC1	-22.8%	29.1 µM [rising, single point]	
CCN(C(=O)CCCC(=O)N(CC)c1ccccc1)c1ccccc1	3.24%	16.4 µM [rising, single point]	
COc1cc(OC)cc(-c2nnc(NC(=O)CCS(=O)(=O)c3ccccc3)o2)c1			6.51 µM [rising, single point]
CCCC(=O)Nc1ccc(Nc2ccccc2)cc1	-3.66%		
O=C(CSc1nnc2ncccn12)Nc1cccc2ccccc12	2.5%		
CC(=O)N1c2ccc(S(=O)(=O)N(C)c3cc(C)ccc3C)cc2CC1C (stereo not given)	-20.4%	0.92 µM [falling, full curve, poor fit]	
C[C@@H]1CCC(=O)N(C[C@@H](C)CC#N)CC1	23.3%		
O=C(Nc1ccc(C(=O)O)cc1)/C(=C\c1ccc2c(c1)OCO2)NC(=O)c1ccc(Br)cc1	-48.7%	20.6 µM [falling, single point]	1.16 µM [falling, full curve]
O=C(C1CCCN(c2ncnc3c2nc2n3CCCCC2)C1)N1CCN(c2cccc(Cl)c2)CC1 (stereo not given)	-17%		

Random excerpt: three records from the list.
Structure (SMILES)	cell number change	AC50 [1]	AC50 [2]
O=C(CSc1nnc2ncccn12)Nc1cccc2ccccc12	2.5%		
Cc1ccc(OCCCCn2ccnc2C)c(C)c1	-50.7%	20.6 µM [falling, single point]	
CCc1nc2sc(C)c(C)c2c(=O)n1CCO		1.64 µM [falling, partial curve]	
